Results published in US20210101928A1 (Sage Therapeutics, Inc., priority 2017, published 2021).
At least one compound was matched to its structure with a doubt left.

Target: GABAA receptor ([35S]-TBPS binding, rat brain cortical membranes)
Experiment: Steroid inhibition of [35S]-TBPS binding
Settings: in the presence of 5 mM GABA
Method: [^35S]-t-Butylbicyclophosphorothionate (TBPS) binding assays using rat brain cortical membranes in the presence of 5 mM GABA has been described (Gee et al, J. Pharmacol. Exp. Ther. 1987, 241, 346-353; Hawkinson et al, Mol. Pharmacol. 1994, 46, 977-985; Lewin, A. H et al., Mol. Pharmacol. 1989, 35, 189-194).
Briefly, cortices are rapidly removed following decapitation of carbon dioxide-anesthetized Sprague-Dawley rats (200-250 g). The cortices are homogenized in 10 volumes of ice-cold 0.32 M sucrose using a glass/teflon homogenizer and centrifuged at 1500×g for 10 min at 4° C. The resultant supernatants are centrifuged at 10,000×g for 20 min at 4° C. to obtain the P2 pellets. The P2 pellets are resuspended in 200 mM NaCl/50 mM Na—K phosphate pH 7.4 buffer and centrifuged at 10,000×g for 10 min at 4° C. This washing procedure is repeated twice and the pellets are resuspended in 10 volumes of buffer. Aliquots ([…]) of the membrane suspensions are incubated with 3 nM [^35S]-TBPS and […] aliquots of test drug dissolved in dimethyl sulfoxide (DMSO) (final 0.5%) in the presence of 5 mM GABA. The incubation is brought to a final volume of 1.0 mL with buffer. Nonspecific binding is determined in the presence of […] and ranged from 15 to 25%. […] Filter bound radioactivity is measured by liquid scintillation spectrometry. […]

SMILES | IC50 (Table II-2, 3 nM [35S]-TBPS) [nM] | IC50 (Table III-1 (biological data), 3 nM [35S]-TBPS) [nM]
COC(C)[C@]12CC[C@@](C)(O)C[C@H]1CC[C@H]1[C@@H]3CC[C@H](C(C)=O)[C@@]3(C)CC[C@@H]12 (some centres unmarked) [II-E10] | 10 to 100 | –
CC[C@]12CC[C@H]3[C@@H](CC[C@@H]4C[C@](C)(O)CC[C@@H]43)[C@@H]1CC[C@@H]2C(C)=O [III-A8, 1-((3R,5R,8R,9R,10S,13S,14S,17S)-13-ethyl-3-hydroxy-3-methylhexadecahydro-1H-cyclopenta[a]phenanthren-17-yl)ethan-1-one] | – | < 10
